Measurements taken from patent publication US11993574B2, “Pyrazole and imidazole compounds for inhibition of IL-17 and RORgamma” (REATA PHARMACEUTICALS, INC., priority 2018, dated 2024).

Protein sequences, listed by entry. Tags and fused reporters are not part of them. Residues count along the entry.
UniProt P51449, 269-508 limits assumed: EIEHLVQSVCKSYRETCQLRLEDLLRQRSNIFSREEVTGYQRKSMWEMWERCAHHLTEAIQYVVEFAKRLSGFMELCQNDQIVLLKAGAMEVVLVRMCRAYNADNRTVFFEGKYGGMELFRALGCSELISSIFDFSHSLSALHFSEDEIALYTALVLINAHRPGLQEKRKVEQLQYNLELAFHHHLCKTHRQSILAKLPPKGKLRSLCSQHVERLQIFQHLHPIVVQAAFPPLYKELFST

How the values were obtained:
[1] = target: Human RAR-related Orphan Receptor Gamma (RORγ) (Homo sapiens, UniProt P51449); assay: RORγ assay (GAL4-RORγ hybrid luciferase reporter, Indigo Biosciences); conditions: read-out: RORγ IC50; inverse-agonist activity, GAL4-RORγ reporter cells, 23 hours
Source text: B. RORγ Assay and Cell Viability
The RORγ assay system was purchased from Indigo Biosciences. This nuclear receptor assay utilizes a human cell line that has been engineered to express a hybrid form of the Human RAR-related Orphan Receptor Gamma (RORγ) at high levels. The N-terminal DNA binding domain (DBD) of the native RORγ receptor was substituted with the yeast GAL4-DBD to generate the GAL4-RORγ hybrid nuclear receptor. The reporter cell line is transfected with a plasmid that encodes the beetle luciferase gene under the control of the GAL4 upstream activating sequence (UAS). GAL4 binds to the UAS and increases transcription of downstream target genes. The GAL4-RORγ hybrid is constitutively active; therefore, the principle application of this reporter assay system is to screen test compounds to quantify inverse-agonist activities against human RORγ. Because the ligand binding domain (LBD) of RORγ is identical to the LBD of RORγt, this assay is an accurate surrogate for evaluating activity of experimental ligands against RORγt. […] After this incubation, luciferin was added to the wells and luciferase activity was determined by measuring the luminescence signal using a BMG Pherastar microplate reader. Viability was determined using the Live Cell Multiplex Assay (Indigo Biosciences). […] Data were analyzed using GraphPad Prism version 6.00 for Windows (GraphPad Software, La Jolla Calif. USA). […]

IL-17A = assay: IL-17 release from differentiated primary human T-cells (IL-17A HTRF assay); conditions: read-out: hIL17 IC50; primary human CD4+ T cells differentiated into Th17 cells, 45-hour incubation, IL-17A in supernatant
Description: C. IL-17 Release from Differentiated Primary Human T-Cells and Cell Viability
Primary human cryopreserved CD4+ T Cells (Lonza) were thawed according to the manufacturer's recommendations and plated either in Lymphocyte Growth Medium-3 (LGM-3) or X-VIVO 20 media (Lonza) in 96-well tissue culture plates at a density of ˜2×10^5 cells per well, and allowed to recover for approximately 4 hours at 37° C. with 5% CO2 in a humidified atmosphere. After the recovery step, DMSO (vehicle) or test compound at doses ranging from 2 to 500 nM or 4 to 1000 nM in a three-fold dilution series was added to the cells. Three replicate wells were tested for each treatment condition. […] Cell viability was assessed in the original plate using the CyQuant Direct Assay (Life Technologies). […] Fluorescence was read on a SpectraMax M2e spectrophotometer at 480 nm (excitation) and 535 nm (emission) wavelengths. […] The concentration of IL-17A in the supernatant was measured using the Homogeneous Time-Resolved Fluorescence (HTRF) assay (Cisbio Bioassays) according to the manufacturer's protocol. […] Data were analyzed using GraphPad Prism (GraphPad Software, La Jolla California USA). […] The IC50 values for compound-mediated reduction in IL-17A levels and cell viability were determined by non-linear regression analysis using the log(inhibitor) vs. normalized response with variable slope equation. […]

[2] = tested on: Nrf2 transcription factor; assay: AREc32 luciferase reporter assay; conditions: AREc32 cells, 19 hours; concentration required to increase GST ARE luciferase reporter activity by 2-fold
Source text: A. AREc32 Luciferase Reporter Assay
The AREc32 luciferase reporter assay allows for quantitative assessment of the endogenous activity of the Nrt2 transcription factor in cultured mammalian cells. AREc32 cells are derived from MCF-7 human breast carcinoma cells that were stably transfected with a reporter construct that contains the firefly luciferase gene located downstream of eight copies of the rat GSTA2 antioxidant response element (ARE) sequence (Wang et al., 2006; Concept Life Sciences Integrated Discovery and Development Services Ltd (CLSIDDS)). Active Nrf2 binds to the ARE sequences and increases expression of the firefly luciferase gene. To assess the Nrf2-activating potential of the test compounds, AREc32 cells were plated in black […] plates at a density of 20,000 cells per well in triplicate in DMEM+10% FBS+0.8 mg/mL Geneticin and incubated at 37° C. with 5% CO2 in a humidified atmosphere. […] Luciferase activity was determined using the ONE-Glo Luciferase assay (Promega). The luminescence signal was measured on a BMG Pherastar microplate reader. The mean luminescence value from test compound-treated wells was normalized to that from DMSO-treated wells and was represented as fold-induction. Data were analyzed using GraphPad Prism version 6.00 for Windows, GraphPad Software, La Jolla Calif. […]

| Structure (SMILES) | pIC50 [1] | pIC50 (IL-17A) | NRF2 ARE 2-Fold (EC2×) [2] |
| --- | --- | --- | --- |
| Cc1cc(-c2ccc(-n3nc(-c4ccccc4F)c4c3[C@]3(C)CC(C#N)=C(O)[C@H](C)[C@H]3CC4)cc2)cnn1 | 6.53 | 6.33 |  |
| C[C@H]1C(O)=C(C#N)C[C@@]2(C)c3c(c(-c4ccncn4)nn3-c3ccc(-c4cncc(F)c4)cc3)CC[C@H]12 | 6.20 | < 6.30 | >2.000 µM |

pIC50: −log10 of the molar value. Structures were worked out from names or drawings and are uncertain.
